From publication PMC6056564 come the findings set out here.

By UniProt entry, the sequences of proteins in these tests, tags left out. Residues count along the entry.
UniProt P23818, residues 19-907: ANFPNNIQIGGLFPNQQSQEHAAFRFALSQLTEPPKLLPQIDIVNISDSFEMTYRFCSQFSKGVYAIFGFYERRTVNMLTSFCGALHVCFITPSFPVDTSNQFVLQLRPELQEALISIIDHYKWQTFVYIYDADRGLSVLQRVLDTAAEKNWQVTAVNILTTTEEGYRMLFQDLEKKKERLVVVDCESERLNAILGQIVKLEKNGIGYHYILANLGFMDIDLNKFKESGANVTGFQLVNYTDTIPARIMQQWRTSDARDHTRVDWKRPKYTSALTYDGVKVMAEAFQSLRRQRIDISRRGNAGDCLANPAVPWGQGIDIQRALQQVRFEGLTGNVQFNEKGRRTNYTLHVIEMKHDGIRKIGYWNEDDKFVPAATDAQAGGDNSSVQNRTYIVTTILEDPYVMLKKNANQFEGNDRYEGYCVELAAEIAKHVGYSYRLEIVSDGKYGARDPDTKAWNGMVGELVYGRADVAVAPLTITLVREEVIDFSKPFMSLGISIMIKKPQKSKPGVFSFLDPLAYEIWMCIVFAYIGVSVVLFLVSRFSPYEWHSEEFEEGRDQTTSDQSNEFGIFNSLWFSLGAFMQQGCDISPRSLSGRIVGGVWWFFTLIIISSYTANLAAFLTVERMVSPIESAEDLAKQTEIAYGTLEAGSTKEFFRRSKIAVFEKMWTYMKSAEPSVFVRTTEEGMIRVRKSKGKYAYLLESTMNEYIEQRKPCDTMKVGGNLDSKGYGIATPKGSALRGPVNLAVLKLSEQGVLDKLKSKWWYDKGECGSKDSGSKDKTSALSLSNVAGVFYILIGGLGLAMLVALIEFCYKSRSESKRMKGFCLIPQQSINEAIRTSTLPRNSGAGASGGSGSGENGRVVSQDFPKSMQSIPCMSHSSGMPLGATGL
UniProt Q5Y5T5: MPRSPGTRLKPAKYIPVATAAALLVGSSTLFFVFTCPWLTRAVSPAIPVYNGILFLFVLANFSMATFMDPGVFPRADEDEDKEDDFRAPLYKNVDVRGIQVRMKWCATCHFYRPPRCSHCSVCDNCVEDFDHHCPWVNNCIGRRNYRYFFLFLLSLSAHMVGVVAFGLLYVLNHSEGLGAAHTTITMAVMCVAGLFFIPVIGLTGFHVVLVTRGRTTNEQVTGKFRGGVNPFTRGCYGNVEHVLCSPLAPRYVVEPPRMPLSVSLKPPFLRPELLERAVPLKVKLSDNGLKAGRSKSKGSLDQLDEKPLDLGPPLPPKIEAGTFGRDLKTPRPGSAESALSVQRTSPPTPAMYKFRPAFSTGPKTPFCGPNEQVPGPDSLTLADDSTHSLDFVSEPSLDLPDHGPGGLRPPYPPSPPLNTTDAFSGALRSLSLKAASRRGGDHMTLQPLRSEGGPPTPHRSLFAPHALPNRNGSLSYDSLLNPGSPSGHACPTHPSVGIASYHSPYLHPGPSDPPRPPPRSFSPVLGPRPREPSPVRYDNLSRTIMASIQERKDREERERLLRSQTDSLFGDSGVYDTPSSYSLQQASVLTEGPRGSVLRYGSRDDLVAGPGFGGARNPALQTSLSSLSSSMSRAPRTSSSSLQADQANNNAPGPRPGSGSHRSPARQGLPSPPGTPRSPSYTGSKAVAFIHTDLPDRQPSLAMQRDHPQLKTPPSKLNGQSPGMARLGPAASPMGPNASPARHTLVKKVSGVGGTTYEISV

The experiment addresses GluA1 protein (AMPA receptor subunit) (mouse (endogenous in hippocampus of C57BL/6 mice)) (UniProt P23818). The experiment is described as follows: co-IP; hippocampal lysates of KA-induced chronic epileptic mice in modified RIPA buffer; antibodies to ZDHHC8, GluA1, GluA2, GluA3 or GluA4 with protein A/G-agarose beads, 2 h at room temperature, three washes with RIPA buffer; Western blots with ZDHHC8 and GluA1-4 antibodies.

Results are given in words; binding and its absence hold for the method and conditions named. In cells and extracts the contact can be indirect. Some binding calls cover weakened binding; strength is not graded here.

For “Zinc finger DHHC-type containing 8 (ZDHHC8) (from UniProt Q5Y5T5 1-762) (enzyme)”, the binding entry is listed as “binds”.
